From doi:10.1101/650358
No constants are given. Whether binding was seen depends on the method and setting. Binding seen in cells or lysates may run through a third protein. Some results given as binding are weak or reduced against the parent protein; the word gives no strength. For some assays here: Tags and fused reporters may be left off the sequences shown.

T1: Arabidopsis thaliana LONESOME HIGHWAY (AtLHW), BiFC fusion (Arabidopsis thaliana) (UniProt Q9XIN0)
T1 sequence: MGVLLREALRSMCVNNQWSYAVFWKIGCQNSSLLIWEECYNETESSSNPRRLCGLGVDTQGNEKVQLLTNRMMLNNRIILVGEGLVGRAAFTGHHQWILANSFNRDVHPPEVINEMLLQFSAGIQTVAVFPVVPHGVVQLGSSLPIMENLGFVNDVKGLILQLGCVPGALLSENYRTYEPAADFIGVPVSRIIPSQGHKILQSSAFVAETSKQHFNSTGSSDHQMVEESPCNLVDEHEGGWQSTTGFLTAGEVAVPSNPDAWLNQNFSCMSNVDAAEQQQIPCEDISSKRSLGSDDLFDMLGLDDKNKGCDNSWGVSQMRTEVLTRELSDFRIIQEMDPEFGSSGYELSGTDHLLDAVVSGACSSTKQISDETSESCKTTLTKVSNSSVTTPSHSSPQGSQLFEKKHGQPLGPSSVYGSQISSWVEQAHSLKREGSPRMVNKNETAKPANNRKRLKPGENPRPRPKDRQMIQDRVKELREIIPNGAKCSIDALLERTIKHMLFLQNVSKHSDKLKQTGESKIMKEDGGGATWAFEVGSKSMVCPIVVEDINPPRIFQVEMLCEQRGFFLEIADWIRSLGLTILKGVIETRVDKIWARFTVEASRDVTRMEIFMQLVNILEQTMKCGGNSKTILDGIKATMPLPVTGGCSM

T2: Arabidopsis thaliana LHW (AtLHW), FRET-FLIM construct (Arabidopsis thaliana) (UniProt Q9XIN0)
T2 sequence: T1 sequence

B1: Arabidopsis thaliana LONESOME HIGHWAY (AtLHW), BiFC fusion (protein, UniProt Q9XIN0 1-650)
chain: T1 sequence
B2: Arabidopsis thaliana TARGET OF MONOPTEROS 5 (AtTMO5), BiFC fusion (protein, UniProt Q9LS08 1-344)
chain: MYAMKEEDCLQTFHNLQDYQDQFHLHHHPQILPWSSTSLPSFDPLHFPSNPTRYSDPVHYFNRRASSSSSSFDYNDGFVSPPPSMDHPQNHLRILSEALGPIMRRGSSFGFDGEIMGKLSAQEVMDAKALAASKSHSEAERRRRERINTHLAKLRSILPNTTKTDKASLLAEVIQHMKELKRQTSQITDTYQVPTECDDLTVDSSYNDEEGNLVIRASFCCQDRTDLMHDVINALKSLRLRTLKAEIATVGGRVKNILFLSREYDDEEDHDSYRRNFDGDDVEDYDEERMMNNRVSSIEEALKAVIEKCVHNNDESNDNNNLEKSSSGGIKRQRTSKMVNRCYN
B3: Arabidopsis thaliana TMO5 (AtTMO5), FRET-FLIM construct (protein, UniProt Q9LS08 1-344)
chain: B2 chain

Legend:
[1] = target: T1, Arabidopsis thaliana LONESOME HIGHWAY (AtLHW), BiFC fusion (Arabidopsis thaliana); assay: split reporter
[2] = target: Arabidopsis thaliana TARGET OF MONOPTEROS 5 (AtTMO5), BiFC fusion (Arabidopsis thaliana) (UniProt Q9LS08); assay: split reporter
[3] = target: T2, Arabidopsis thaliana LHW (AtLHW), FRET-FLIM construct (Arabidopsis thaliana); assay: FRET or BRET
[4] = target: Arabidopsis thaliana TMO5 (AtTMO5), FRET-FLIM construct (Arabidopsis thaliana) (UniProt Q9LS08); assay: FRET or BRET

| Binder | binding [1] | binding [2] | binding [3] | binding [4] |
| --- | --- | --- | --- | --- |
| B1 | no binding |  |  |  |
| B2 | binds | binds |  |  |
| B3 |  |  | binds | binds |
